Values from PubChem BioAssay AID1259308 (NCATS, 2017).

- Assay: 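Candidate targets for better recombinant protein yield in mammalian cells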 (primary screen)
- Cells: human HEK293 embryonic kidney cells stably expressing firefly luciferase (HEK-CMV-Luc2-Hygro)
- Reagents: single siRNA against human genes, 0.8 pmol siRNA per well
- Duration: 72 h
- Detection: 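Reporter luminescence and viable-cell signal on separate replicate plates, given as percent of non-targeting control and median/MAD z-scores, plus per-cell luciferase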
- Reading the numbers: total luciferase, z-score and total luciferase, % of control: higher = more reporter protein produced; luciferase per cell, z-score: higher = more reporter output per viable cell; viable cells, % of control: higher = more viable cells
- Rule for the call: 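Active when the median/MAD z-score for overall luciferase is greater than 3; a gene was taken forward for validation with new siRNAs if at least two of its three siRNAs passed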
- Calls: active = raised luciferase; inactive = no rise
The whole screen tested about 59,000 reagents; shown is a part drawn at random. Of all reagents, about 1,510 (2.6%) got an active call. 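Calls use total luciferase alone and ignore viability, so some active siRNAs may act by altering cell number.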 A number with no mark means an inactive call. Reagents against one gene are numbered here. Reagent sequences are not shown.

no.	target	reagent	total luciferase, z-score	total luciferase, % of control	luciferase per cell, z-score	viable cells, % of control
1	SLC5A5 (GeneID 6528)	1	0.785	97.5	0.0495	108
2	SLC5A5 (GeneID 6528)	2	0.537	92.6	0.527	90
3	SLC5A5 (GeneID 6528)	3	-1.15	59.1	-0.648	78.3
4	GGNBP2 (GeneID 79893)	1	0.113	84.1	0.383	85
5	GGNBP2 (GeneID 79893)	2	-0.877	64.4	-1.19	98.4
6	GGNBP2 (GeneID 79893)	3	3.32 (active)	148	1.34	116
7	TENM3 (GeneID 55714)	1	0.0866	83.6	-0.438	105
8	TENM3 (GeneID 55714)	2	-1.22	57.6	-1.83	104
9	TENM3 (GeneID 55714)	3	-0.604	69.9	-0.883	98.5
10	CLDN16 (GeneID 10686)	1	0.521	92.2	0.216	97.4
11	CLDN16 (GeneID 10686)	2	0.842	98.6	0.508	96.4
12	CLDN16 (GeneID 10686)	3	4.95 (active)	180	2.73	98.2
13	RPS4XP16 (GeneID 220433)	1	0.0522	82.9	0.366	84.2
14	RPS4XP16 (GeneID 220433)	2	1.18	105	1.33	83.1
15	RPS4XP16 (GeneID 220433)	3	-1.09	60.2	1.24	48.5

Continued, starting with the last 3 of the part before.
no.	target	reagent	total luciferase, z-score	total luciferase, % of control	luciferase per cell, z-score	viable cells, % of control
13	RPS4XP16 (GeneID 220433)	1	0.0522	82.9	0.366	84.2
14	RPS4XP16 (GeneID 220433)	2	1.18	105	1.33	83.1
15	RPS4XP16 (GeneID 220433)	3	-1.09	60.2	1.24	48.5
16	DNAJC16 (GeneID 23341)	1	-0.142	79.1	-0.274	94.9
17	DNAJC16 (GeneID 23341)	2	-0.8	66	-0.475	83.5
18	DNAJC16 (GeneID 23341)	3	-0.296	76	-0.459	95.8
19	SUPT20H (GeneID 55578)	1	1.7	116	1.35	90.8
20	SUPT20H (GeneID 55578)	2	-1.71	47.9	-1.35	76.3
21	SUPT20H (GeneID 55578)	3	2.72	136	2.45	79.6
22	COBLL1 (GeneID 22837)	1	-0.174	78.4	-0.724	106
23	COBLL1 (GeneID 22837)	2	-0.0164	81.6	-0.312	99
24	COBLL1 (GeneID 22837)	3	-0.356	74.8	-0.48	94.9
